Measured values: publication PMC6109062, “The dual methyltransferase METTL13 targets N terminus and Lys55 of eEF1A and modulates codon-specific translation rates” (Nature Communications, 2018)

B1: EEF1B2 (protein, UniProt P24534 1-225)
chain: MGFGDLKSPAGLQVLNDYLADKSYIEGYVPSQADVAVFEAVSSPPPADLCHALRWYNHIKSYEKEKASLPGVKKALGKYGPADVEDTTGSGATDSKDDDDIDLFGSDDEEESEEAKRLREERLAQYESKKAKKPALVAKSSILLDVKPWDDETDMAKLEECVRSIQADGLVWGSSKLVPVGYGIKKLQIQCVVEDDKVGTDMLEEQITAFEDYVQSMDVAAFNKI
B2: VARS (enzyme, UniProt P26640 1-1264)
chain: MSTLYVSPHPDAFPSLRALIAARYGEAGEGPGWGGAHPRICLQPPPTSRTPFPPPRLPALEQGPGGLWVWGATAVAQLLWPAGLGGPGGSRAAVLVQQWVSYADTELIPAACGATLPALGLRSSAQDPQAVLGALGRALSPLEEWLRLHTYLAGEAPTLADLAAVTALLLPFRYVLDPPARRIWNNVTRWFVTCVRQPEFRAVLGEVVLYSGARPLSHQPGPEAPALPKTAAQLKKEAKKREKLEKFQQKQKIQQQQPPPGEKKPKPEKREKRDPGVITYDLPTPPGEKKDVSGPMPDSYSPRYVEAAWYPWWEQQGFFKPEYGRPNVSAANPRGVFMMCIPPPNVTGSLHLGHALTNAIQDSLTRWHRMRGETTLWNPGCDHAGIATQVVVEKKLWREQGLSRHQLGREAFLQEVWKWKEEKGDRIYHQLKKLGSSLDWDRACFTMDPKLSAAVTEAFVRLHEEGIIYRSTRLVNWSCTLNSAISDIEVDKKELTGRTLLSVPGYKEKVEFGVLVSFAYKVQGSDSDEEVVVATTRIETMLGDVAVAVHPKDTRYQHLKGKNVIHPFLSRSLPIVFDEFVDMDFGTGAVKITPAHDQNDYEVGQRHGLEAISIMDSRGALINVPPPFLGLPRFEARKAVLVALKERGLFRGIEDNPMVVPLCNRSKDVVEPLLRPQWYVRCGEMAQAASAAVTRGDLRILPEAHQRTWHAWMDNIREWCISRQLWWGHRIPAYFVTVSDPAVPPGEDPDGRYWVSGRNEAEAREKAAKEFGVSPDKISLQQDEDVLDTWFSSGLFPLSILGWPNQSEDLSVFYPGTLLETGHDILFFWVARMVMLGLKLTGRLPFREVYLHAIVRDAHGRKMSKSLGNVIDPLDVIYGISLQGLHNQLLNSNLDPSEVEKAKEGQKADFPAGIPECGTDALRFGLCAYMSQGRDINLDVNRILGYRHFCNKLWNATKFALRGLGKGFVPSPTSQPGGHESLVDRWIRSRLTEAVRLSNQGFQAYDFPAVTTAQYSFWLYELCDVYLECLKPVLNGVDQVAAECARQTLYTCLDVGLRLLSPFMPFVTEELFQRLPRRMPQAPPSLCVTPYPEPSECSWKDPEAEAALELALSITRAVRSLRADYNLTRIRPDCFLEVADEATGALASAVSGYVQALASAGVVAVLALGAPAPQGCAVALASDRCSIHLQLQGLVDPARELGKLQAKRVEAQRQAQRLRERRAASGYPVKVPLEVQEADEAKLQQTEAELRKVDEAIALFQKML
B3: CARS (enzyme, UniProt P49589 1-748)
chain: MADSSGQQGKGRRVQPQWSPPAGTQPCRLHLYNSLTRNKEVFIPQDGKKVTWYCCGPTVYDASHMGHARSYISFDILRRVLKDYFKFDVFYCMNITDIDDKIIKRARQNHLFEQYREKRPEAAQLLEDVQAALKPFSVKLNETTDPDKKQMLERIQHAVQLATEPLEKAVQSRLTGEEVNSCVEVLLEEAKDLLSDWLDSTLGCDVTDNSIFSKLPKFWEGDFHRDMEALNVLPPDVLTRVSEYVPEIVNFVQKIVDNGYGYVSNGSVYFDTAKFASSEKHSYGKLVPEAVGDQKALQEGEGDLSISADRLSEKRSPNDFALWKASKPGEPSWPCPWGKGRPGWHIECSAMAGTLLGASMDIHGGGFDLRFPHHDNELAQSEAYFENDCWVRYFLHTGHLTIAGCKMSKSLKNFITIKDALKKHSARQLRLAFLMHSWKDTLDYSSNTMESALQYEKFLNEFFLNVKDILRAPVDITGQFEKWGEEEAELNKNFYDKKTAIHKALCDNVDTRTVMEEMRALVSQCNLYMAARKAVRKRPNQALLENIALYLTHMLKIFGAVEEDSSLGFPVGGPGTSLSLEATVMPYLQVLSEFREGVRKIAREQKVPEILQLSDALRDNILPELGVRFEDHEGLPTVVKLVDRNTLLKEREEKRRVEEEKRKKKEEAARRKQEQEAAKLAKMKIPPSEMFLSETDKYSKFDENGLPTHDMEGKELSKGQAKKLKKLFEAQEKLYKEYLQMAQNGSFQ

Target: affinity-tagged WT eEF1A (human)
Assay: affinity purification with mass spectrometry; affinity-tagged WT or methylation-deficient eEF1A overexpressed in HEK-293 cells; co-purifying proteins quantified

Binder | binding
B1 | binds
B2 | binds
B3 | binds

No constants are given. Whether binding was seen depends on the method and setting. Binding seen in cells or lysates may run through a third protein. Here binding means that the protein was enriched with, or labelled near, the bait; the list need not be complete.
